What all share (assay): affinity purification with mass spectrometry; tandem affinity purification by the FLAG and His epitopes of ELF3-HFC from extracts of 10-day-old transgenic Arabidopsis seedlings (elf3-2 background), 12L:12D, harvested at ZT12; two replicates for each line
Test [1] deals with T1, AtELF3-HFC (Arabidopsis EARLY FLOWERING 3 with C-terminal His6-3xFlag tag) (Arabidopsis thaliana) (UniProt O82804).
T1 sequence: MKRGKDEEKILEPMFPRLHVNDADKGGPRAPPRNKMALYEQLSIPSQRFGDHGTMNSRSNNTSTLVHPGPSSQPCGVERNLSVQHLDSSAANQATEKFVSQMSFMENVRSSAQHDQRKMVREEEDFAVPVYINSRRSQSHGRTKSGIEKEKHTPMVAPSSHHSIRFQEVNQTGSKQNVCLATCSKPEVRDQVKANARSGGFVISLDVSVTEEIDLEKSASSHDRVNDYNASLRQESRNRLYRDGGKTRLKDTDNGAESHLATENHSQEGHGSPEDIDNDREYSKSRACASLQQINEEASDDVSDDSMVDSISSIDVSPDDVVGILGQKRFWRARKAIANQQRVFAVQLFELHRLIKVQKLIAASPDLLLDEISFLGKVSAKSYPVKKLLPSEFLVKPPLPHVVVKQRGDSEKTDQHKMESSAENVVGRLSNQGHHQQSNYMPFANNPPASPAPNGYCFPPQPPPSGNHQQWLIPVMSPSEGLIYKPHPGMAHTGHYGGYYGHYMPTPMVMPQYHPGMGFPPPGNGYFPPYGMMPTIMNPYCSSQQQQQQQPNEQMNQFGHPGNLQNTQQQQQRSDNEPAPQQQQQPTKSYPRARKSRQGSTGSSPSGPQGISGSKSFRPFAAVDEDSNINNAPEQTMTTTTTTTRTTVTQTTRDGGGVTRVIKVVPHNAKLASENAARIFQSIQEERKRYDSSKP

The chains behind the UniProt entries cited, without tags or fusion partners. Where a name states a change or a piece, a line headed by the entry shows the natural chain unless it says otherwise.
UniProt Q9SQR8: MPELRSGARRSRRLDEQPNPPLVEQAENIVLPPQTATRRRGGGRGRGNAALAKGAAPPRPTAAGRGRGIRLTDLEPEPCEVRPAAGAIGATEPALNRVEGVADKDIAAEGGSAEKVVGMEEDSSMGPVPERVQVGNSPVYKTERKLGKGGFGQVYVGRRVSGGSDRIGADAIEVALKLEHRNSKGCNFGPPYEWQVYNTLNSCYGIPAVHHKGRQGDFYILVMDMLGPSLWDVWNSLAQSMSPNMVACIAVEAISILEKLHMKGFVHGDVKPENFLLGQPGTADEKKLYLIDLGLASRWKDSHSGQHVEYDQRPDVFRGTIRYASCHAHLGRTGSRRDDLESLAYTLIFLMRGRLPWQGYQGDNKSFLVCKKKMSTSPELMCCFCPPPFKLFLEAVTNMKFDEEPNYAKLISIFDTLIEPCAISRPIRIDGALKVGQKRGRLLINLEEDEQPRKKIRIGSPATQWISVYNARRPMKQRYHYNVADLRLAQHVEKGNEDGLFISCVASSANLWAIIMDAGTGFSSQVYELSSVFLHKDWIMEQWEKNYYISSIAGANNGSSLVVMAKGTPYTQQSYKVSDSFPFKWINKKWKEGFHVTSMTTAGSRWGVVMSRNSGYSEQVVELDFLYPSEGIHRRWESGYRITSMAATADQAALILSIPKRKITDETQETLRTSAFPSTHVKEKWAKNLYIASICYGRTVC
UniProt P14713: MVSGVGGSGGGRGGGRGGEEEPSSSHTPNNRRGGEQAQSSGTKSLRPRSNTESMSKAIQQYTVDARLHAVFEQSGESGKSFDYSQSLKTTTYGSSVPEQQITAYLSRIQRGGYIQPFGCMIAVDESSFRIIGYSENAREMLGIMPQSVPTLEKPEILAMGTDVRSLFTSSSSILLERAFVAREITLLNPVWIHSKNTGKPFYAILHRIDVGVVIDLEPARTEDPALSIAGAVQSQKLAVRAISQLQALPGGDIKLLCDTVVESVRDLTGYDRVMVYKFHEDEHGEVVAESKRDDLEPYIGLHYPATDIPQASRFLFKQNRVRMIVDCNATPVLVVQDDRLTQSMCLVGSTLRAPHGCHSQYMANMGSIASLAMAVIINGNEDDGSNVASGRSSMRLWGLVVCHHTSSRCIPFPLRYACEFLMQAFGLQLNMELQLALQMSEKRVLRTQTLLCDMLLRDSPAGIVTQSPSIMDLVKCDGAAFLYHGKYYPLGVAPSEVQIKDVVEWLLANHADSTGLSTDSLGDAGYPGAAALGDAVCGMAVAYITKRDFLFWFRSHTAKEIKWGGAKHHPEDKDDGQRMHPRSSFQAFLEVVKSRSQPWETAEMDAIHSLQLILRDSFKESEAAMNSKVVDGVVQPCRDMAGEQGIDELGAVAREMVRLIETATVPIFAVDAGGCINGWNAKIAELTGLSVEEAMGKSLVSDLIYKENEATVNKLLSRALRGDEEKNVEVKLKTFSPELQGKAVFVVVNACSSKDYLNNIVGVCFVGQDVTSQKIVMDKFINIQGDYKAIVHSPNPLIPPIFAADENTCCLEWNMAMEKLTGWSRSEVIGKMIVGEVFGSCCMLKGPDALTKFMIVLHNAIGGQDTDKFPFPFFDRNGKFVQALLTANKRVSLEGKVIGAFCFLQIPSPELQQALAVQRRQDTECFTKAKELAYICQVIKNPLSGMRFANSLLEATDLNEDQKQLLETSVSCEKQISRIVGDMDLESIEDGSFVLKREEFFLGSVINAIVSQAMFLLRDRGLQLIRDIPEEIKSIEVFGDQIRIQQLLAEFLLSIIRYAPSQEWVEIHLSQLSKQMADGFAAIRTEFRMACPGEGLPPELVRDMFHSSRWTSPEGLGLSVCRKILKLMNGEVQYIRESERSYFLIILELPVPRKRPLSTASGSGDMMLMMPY
UniProt Q9LID3: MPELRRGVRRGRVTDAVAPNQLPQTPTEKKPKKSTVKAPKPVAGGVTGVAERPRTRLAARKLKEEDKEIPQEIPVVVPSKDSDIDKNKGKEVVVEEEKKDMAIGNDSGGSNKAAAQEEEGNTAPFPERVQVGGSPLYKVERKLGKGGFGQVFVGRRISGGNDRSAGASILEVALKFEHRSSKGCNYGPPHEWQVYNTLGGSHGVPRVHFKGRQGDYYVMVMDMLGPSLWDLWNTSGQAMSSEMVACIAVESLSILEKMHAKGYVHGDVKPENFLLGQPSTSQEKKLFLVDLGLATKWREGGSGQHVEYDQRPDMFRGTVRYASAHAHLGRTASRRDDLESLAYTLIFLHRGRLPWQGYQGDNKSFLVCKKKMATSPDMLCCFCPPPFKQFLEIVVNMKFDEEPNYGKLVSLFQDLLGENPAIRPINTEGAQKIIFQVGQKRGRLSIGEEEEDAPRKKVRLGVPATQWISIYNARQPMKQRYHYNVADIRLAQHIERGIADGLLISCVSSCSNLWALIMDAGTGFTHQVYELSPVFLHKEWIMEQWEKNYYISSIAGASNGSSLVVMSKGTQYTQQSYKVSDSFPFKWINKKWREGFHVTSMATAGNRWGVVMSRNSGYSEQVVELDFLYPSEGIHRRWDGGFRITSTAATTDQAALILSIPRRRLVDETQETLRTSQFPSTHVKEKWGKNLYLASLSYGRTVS
UniProt Q94KE2: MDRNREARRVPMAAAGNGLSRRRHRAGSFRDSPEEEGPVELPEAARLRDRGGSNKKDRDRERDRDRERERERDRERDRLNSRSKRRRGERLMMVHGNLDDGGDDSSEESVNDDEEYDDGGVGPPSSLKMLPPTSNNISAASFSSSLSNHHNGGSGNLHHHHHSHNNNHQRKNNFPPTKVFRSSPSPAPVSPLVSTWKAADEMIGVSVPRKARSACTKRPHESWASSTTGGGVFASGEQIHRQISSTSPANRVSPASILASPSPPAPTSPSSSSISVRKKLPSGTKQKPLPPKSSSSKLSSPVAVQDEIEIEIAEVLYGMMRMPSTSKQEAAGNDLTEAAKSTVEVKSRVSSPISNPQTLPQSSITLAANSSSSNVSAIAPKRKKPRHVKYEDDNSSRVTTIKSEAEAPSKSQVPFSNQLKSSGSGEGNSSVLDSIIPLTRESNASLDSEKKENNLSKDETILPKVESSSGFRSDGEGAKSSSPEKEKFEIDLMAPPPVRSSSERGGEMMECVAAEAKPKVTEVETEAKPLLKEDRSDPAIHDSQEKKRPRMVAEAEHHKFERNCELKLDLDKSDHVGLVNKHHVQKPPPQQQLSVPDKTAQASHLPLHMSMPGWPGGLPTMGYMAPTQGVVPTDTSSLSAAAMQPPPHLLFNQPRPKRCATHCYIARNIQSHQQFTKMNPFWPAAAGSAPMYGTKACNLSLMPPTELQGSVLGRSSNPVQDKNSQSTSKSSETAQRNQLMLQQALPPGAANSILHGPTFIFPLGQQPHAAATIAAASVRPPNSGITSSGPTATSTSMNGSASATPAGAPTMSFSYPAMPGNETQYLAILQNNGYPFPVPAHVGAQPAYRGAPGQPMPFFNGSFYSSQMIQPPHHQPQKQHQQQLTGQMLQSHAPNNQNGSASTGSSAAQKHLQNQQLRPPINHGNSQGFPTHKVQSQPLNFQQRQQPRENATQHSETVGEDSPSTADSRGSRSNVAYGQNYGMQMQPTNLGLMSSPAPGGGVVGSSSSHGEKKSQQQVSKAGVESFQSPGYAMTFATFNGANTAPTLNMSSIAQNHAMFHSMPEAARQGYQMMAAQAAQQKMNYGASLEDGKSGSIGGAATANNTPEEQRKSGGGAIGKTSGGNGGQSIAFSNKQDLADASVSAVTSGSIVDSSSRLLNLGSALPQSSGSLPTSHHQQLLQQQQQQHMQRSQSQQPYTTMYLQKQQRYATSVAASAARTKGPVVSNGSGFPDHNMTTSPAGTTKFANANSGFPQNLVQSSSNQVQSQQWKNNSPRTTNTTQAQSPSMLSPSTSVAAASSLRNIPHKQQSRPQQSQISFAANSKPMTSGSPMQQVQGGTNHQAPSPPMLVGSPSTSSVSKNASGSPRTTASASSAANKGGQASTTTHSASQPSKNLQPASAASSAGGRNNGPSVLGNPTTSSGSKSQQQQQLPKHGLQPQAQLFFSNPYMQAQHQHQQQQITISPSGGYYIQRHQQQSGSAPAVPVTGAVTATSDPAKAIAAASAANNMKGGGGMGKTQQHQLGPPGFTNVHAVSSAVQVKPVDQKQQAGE
UniProt Q9FK52: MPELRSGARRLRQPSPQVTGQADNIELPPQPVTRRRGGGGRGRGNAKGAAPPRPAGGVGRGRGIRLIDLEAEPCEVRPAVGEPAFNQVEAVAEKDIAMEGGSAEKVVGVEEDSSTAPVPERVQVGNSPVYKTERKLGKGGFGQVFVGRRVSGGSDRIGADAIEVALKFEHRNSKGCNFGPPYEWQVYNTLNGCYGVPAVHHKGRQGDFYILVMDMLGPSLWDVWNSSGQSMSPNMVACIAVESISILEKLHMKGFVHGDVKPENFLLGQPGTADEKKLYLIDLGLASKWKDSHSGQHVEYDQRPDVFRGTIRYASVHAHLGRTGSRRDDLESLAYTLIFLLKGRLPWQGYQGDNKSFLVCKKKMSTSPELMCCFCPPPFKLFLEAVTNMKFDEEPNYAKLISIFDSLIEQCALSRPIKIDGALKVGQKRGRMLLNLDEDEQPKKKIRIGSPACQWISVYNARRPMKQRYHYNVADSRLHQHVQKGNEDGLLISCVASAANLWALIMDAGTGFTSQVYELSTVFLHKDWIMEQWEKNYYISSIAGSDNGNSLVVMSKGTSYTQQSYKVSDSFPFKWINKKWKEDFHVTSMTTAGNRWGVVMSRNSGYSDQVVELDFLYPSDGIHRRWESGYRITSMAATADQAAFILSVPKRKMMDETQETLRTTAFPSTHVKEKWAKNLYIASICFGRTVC
UniProt Q9FIX7: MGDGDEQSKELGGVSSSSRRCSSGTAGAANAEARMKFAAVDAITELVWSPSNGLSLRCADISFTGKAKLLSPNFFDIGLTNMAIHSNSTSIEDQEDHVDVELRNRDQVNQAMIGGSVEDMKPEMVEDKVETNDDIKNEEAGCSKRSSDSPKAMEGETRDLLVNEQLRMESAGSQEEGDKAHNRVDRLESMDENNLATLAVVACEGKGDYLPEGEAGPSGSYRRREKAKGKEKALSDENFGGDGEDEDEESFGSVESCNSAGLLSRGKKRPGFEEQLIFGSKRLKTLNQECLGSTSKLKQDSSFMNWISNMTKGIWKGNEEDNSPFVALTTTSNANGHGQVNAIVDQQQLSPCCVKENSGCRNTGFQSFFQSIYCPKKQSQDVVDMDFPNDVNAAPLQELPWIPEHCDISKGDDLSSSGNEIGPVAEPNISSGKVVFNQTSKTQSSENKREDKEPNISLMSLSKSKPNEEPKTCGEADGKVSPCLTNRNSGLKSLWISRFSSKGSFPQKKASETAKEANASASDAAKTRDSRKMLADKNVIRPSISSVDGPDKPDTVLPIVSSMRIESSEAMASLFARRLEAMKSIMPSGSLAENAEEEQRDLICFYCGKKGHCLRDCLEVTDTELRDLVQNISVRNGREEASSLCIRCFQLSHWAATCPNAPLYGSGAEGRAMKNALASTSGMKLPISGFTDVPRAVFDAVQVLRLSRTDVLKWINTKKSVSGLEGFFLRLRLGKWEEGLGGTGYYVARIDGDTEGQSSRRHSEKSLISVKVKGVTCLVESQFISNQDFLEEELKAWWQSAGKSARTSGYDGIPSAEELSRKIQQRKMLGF

In test [2] the target is BdELF3-HFC (Brachypodium distachyon ELF3 with C-terminal His6-3xFlag tag) (Brachypodium distachyon).
Test [3] has as its target SvELF3-HFC (Setaria viridis ELF3a with C-terminal His6-3xFlag tag) (Setaria viridis).

Results are given in words; binding and its absence hold for the method and conditions named. In cells and extracts the contact can be indirect. A yes stands for co-enrichment or nearness to the bait. Other partners may have been found. For some of these results: Tags and fused reporters may be left off the sequences shown.

MLK2 (from UniProt Q9SQR8): in test [1], the binding entry is on record as “binds”.
As to “phytochrome B (from UniProt P14713 1-1172)”, in test [1], the binding result is recorded as “binds”.
Still for that read-out and setting: next, MLK3: “binds”; MLK4 (from UniProt Q9LID3): “binds”; TIC (from UniProt Q94KE2 1-1550): “binds”.
The same measure, in the same setting: next, MUT9-LIKE KINASE1 (from UniProt Q9FK52): “binds”; TZP (from UniProt Q9FIX7): “binds”.

B1: ELF4-L4 (protein, UniProt Q570U6 1-114)
chain: MEGDVLSGFGDRHNMDGKLLQSFQKSFVDVQDILDQNRLLINEINQNHESKQPDNLGRNVGLIKELNNNIRRVASLYGDLSHSFARSVDASSEGESSGTLKSDGKANQKRFRSG
Regarding B1, the binding entry in test [2] is on record as “binds”.

B2: phyE (protein, UniProt P42498 1-1112)
chain: MGFESSSSAASNMKPQPQKSNTAQYSVDAALFADFAQSIYTGKSFNYSKSVISPPNHVPDEHITAYLSNIQRGGLVQPFGCLIAVEEPSFRILGLSDNSSDFLGLLSLPSTSHSGEFDKVKGLIGIDARTLFTPSSGASLSKAASFTEISLLNPVLVHSRTTQKPFYAILHRIDAGIVMDLEPAKSGDPALTLAGAVQSQKLAVRAISRLQSLPGGDIGALCDTVVEDVQRLTGYDRVMVYQFHEDDHGEVVSEIRRSDLEPYLGLHYPATDIPQAARFLFKQNRVRMICDCNATPVKVVQSEELKRPLCLVNSTLRAPHGCHTQYMANMGSVASLALAIVVKGKDSSKLWGLVVGHHCSPRYVPFPLRYACEFLMQAFGLQLQMELQLASQLAEKKAMRTQTLLCDMLLRDTVSAIVTQSPGIMDLVKCDGAALYYKGKCWLVGVTPNESQVKDLVNWLVENHGDDSTGLTTDSLVDAGYPGAISLGDAVCGVAAAGFSSKDYLLWFRSNTASAIKWGGAKHHPKDKDDAGRMHPRSSFTAFLEVAKSRSLPWEISEIDAIHSLRLIMRESFTSSRPVLSGNGVARDANELTSFVCEMVRVIETATAPIFGVDSSGCINGWNKKTAEMTGLLASEAMGKSLADEIVQEESRAALESLLCKALQGEEEKSVMLKLRKFGQNNHPDYSSDVCVLVNSCTSRDYTENIIGVCFVGQDITSEKAITDRFIRLQGDYKTIVQSLNPLIPPIFASDENACCSEWNAAMEKLTGWSKHEVIGKMLPGEVFGVFCKVKCQDSLTKFLISLYQGIAGDNVPESSLVEFFNKEGKYIEASLTANKSTNIEGKVIRCFFFLQIINKESGLSCPELKESAQSLNELTYVRQEIKNPLNGIRFAHKLLESSEISASQRQFLETSDACEKQITTIIESTDLKSIEEGKLQLETEEFRLENILDTIISQVMIILRERNSQLRVEVAEEIKTLPLNGDRVKLQLILADLLRNIVNHAPFPNSWVGISISPGQELSRDNGRYIHLQFRMIHPGKGLPSEMLSDMFETRDGWVTPDGLGLKLSRKLLEQMNGRVSYVREDERCFFQVDLQVKTMLGVESRGTEGSSSIK
Regarding B2, the binding entry in test [1], in test [3] and in test [2] was “binds” throughout.

B3: phyC (protein, UniProt P14714 1-1111)
chain: MSSNTSRSCSTRSRQNSRVSSQVLVDAKLHGNFEESERLFDYSASINLNMPSSSCEIPSSAVSTYLQKIQRGMLIQPFGCLIVVDEKNLKVIAFSENTQEMLGLIPHTVPSMEQREALTIGTDVKSLFLSPGCSALEKAVDFGEISILNPITLHCRSSSKPFYAILHRIEEGLVIDLEPVSPDEVPVTAAGALRSYKLAAKSISRLQALPSGNMLLLCDALVKEVSELTGYDRVMVYKFHEDGHGEVIAECCREDMEPYLGLHYSATDIPQASRFLFMRNKVRMICDCSAVPVKVVQDKSLSQPISLSGSTLRAPHGCHAQYMSNMGSVASLVMSVTINGSDSDEMNRDLQTGRHLWGLVVCHHASPRFVPFPLRYACEFLTQVFGVQINKEAESAVLLKEKRILQTQSVLCDMLFRNAPIGIVTQSPNIMDLVKCDGAALYYRDNLWSLGVTPTETQIRDLIDWVLKSHGGNTGFTTESLMESGYPDASVLGESICGMAAVYISEKDFLFWFRSSTAKQIKWGGARHDPNDRDGKRMHPRSSFKAFMEIVRWKSVPWDDMEMDAINSLQLIIKGSLQEEHSKTVVDVPLVDNRVQKVDELCVIVNEMVRLIDTAAVPIFAVDASGVINGWNSKAAEVTGLAVEQAIGKPVSDLVEDDSVETVKNMLALALEGSEERGAEIRIRAFGPKRKSSPVELVVNTCCSRDMTNNVLGVCFIGQDVTGQKTLTENYSRVKGDYARIMWSPSTLIPPIFITNENGVCSEWNNAMQKLSGIKREEVVNKILLGEVFTTDDYGCCLKDHDTLTKLRIGFNAVISGQKNIEKLLFGFYHRDGSFIEALLSANKRTDIEGKVTGVLCFLQVPSPELQYALQVQQISEHAIACALNKLAYLRHEVKDPEKAISFLQDLLHSSGLSEDQKRLLRTSVLCREQLAKVISDSDIEGIEEGYVELDCSEFGLQESLEAVVKQVMELSIERKVQISCDYPQEVSSMRLYGDNLRLQQILSETLLSSIRFTPALRGLCVSFKVIARIEAIGKRMKRVELEFRIIHPAPGLPEDLVREMFQPLRKGTSREGLGLHITQKLVKLMERGTLRYLRESEMSAFVILTEFPLI
With B3, the binding result in test [1], in test [3] and in test [2] was “binds” throughout.

B4: SPA1 (protein, UniProt Q9SYX2 1-1029)
chain: MPVMERVAEETVATNNIQLKARVDDVPCNKLDARHNDMVIQSETANSDCPGSSAHRNVDLTKPPPPEEAAGAKLSVEELTLGNYRIVQGSNNTNVDSPRAGKFEHLYRLARGSAFRAGDGDLDSQPRDMDQMLSRIRQQLAGAPSERQNLKPFMSRRSDQNLEAFSERLRAAGENSIMNAPALISEGVQMKTPVSSSNFSQLLLKRAMKGKGVVGKNQETPPEFVSDQDLGSKEKKLDISKSPTPHDVLPLKSSPKGNGMVSHGDGNHSKSSIGISLREFLRSSYAKREKRHGLCLFRQLVELVDSAHSKRLFLLDLRPSLFTLVPSKKLRYIGNFGKNDLESDVDEDLNRRRPVVEESSSGGRDSKKRKMDLHLNSPGNQLQATSTGRPFKRKSPVIDLNMVDARNPDSCELQQQDYIKNLSVSSVSRKQSMSTWLEEQWYTCPEEINGEDIGEKSNIYALGVLLFELLCHCESGEMHAAMMADLRHRILPPTFLSKYPKEAGFCLWLLHPEPSSRPSARDILKSELICEDDSVKSTAAAEEISELLLHFLSSLEVQKKKKASKLLQDIQTLEDDIKEAERRYSSNVSLVRSHGAIEKRVQSSPLDEHCTTSSALFVPTANTDRLMSNIRQLEDAYFFMRSQINLSSSAATARSDKTLKDRDRCSENQNENQDMSTKGKSSDQLEVFFEGLCKFARYSKFETCGTIRSGDLLNSASVVCSLSFDPDEEHIAAAGISKKIKIFDFNAFMNESVGVHYPLVEMVNKSKLSCVCWNSYIKNYLASTDYDGVVQIWDAGTGQGFSQYTEHQKRAWSVDFSPSDPTKFVSGSDDCSVKLWSINEKRSLGTIWSPANVCCVQFSSYSNHLLAFGSADYKVYCYDLRYVKTPWCTLAGHEKAVSYVKFMDSETIVSASTDNSLKLWNLNKTNSSGLSPGACSLTYKGHTNQKNFVGLSVLDGYIACGSETNEVYSYYKSLPMPMTSYKFGSVDPISGNEYFDDNGQFVSSVCWRKKSNMLVAANSTGNMKLLKLV
As to B4, the binding entry in test [3] and in test [2] was “binds” throughout.

These data come from paper PMC6508535.
